# Results published in PubChem BioAssay AID540276 (National Center for Advancing Translational Sciences (NCATS), 2011).
# Values joined by “and” are separate entries in the source; they are usually repeats but may differ in a detail not shown here. Identical values can stand only once. About 5,400 (1.8%) of roughly 300,000 compounds were called active. Inconclusive means that the source gave no clear call. Such entries were picked first, then a sample of the others. The call rests on the fitted dose curve; tested in HEK293 cells. Potencies beside an inconclusive call are fits to weak or partial responses and may not hold up.
# Assay: qHTS for inhibitors of binding or entry into cells for Marburg Virus
# Settings: Marburg virus pseudotyped entry inhibition, cell reporter; series mostly up to 37.8 µM
# Potency means the concentration at half of the fitted maximal effect.
row,Compound,Potency
1,COc1ccc(C2CC(=O)c3cc(-c4nc(-c5ccc(Cl)cc5)cs4)c(=O)[nH]c3C2)cc1OC (stereo not given),inactive
2,O=C(NC(Cc1c[nH]c2ccccc12)C(=O)N/N=C/c1cccc2ccccc12)c1cccs1 (stereo not given),"inconclusive: 32.6 µM [inhibitor, single point]"
3,O=C(NC1=NCCS1)c1cc(-c2cccs2)nc2ccccc12,"inconclusive: 25.1 µM [inhibitor, partial curve, poor fit]"
4,CCN(Cc1ccccc1)C(=O)CCc1nnc(CCCc2ccccc2)o1,"inconclusive: 2 µM [activator, partial curve, poor fit]"
5,COc1ccc(CCNC(=O)CSc2ncc(C(=O)Nc3ccccc3)c(=O)n2C)cc1,"inconclusive: 31.6 µM [activator, single point]"
6,Cc1nn(C)c(Cl)c1CN1CCN(CC(C)C)C(CCO)C1 (stereo not given),"inconclusive: 5.62 µM [inhibitor, single point]"
7,COc1ccccc1CC(=O)N1CCN(C(=O)c2ccco2)CC1,"inconclusive: 35.5 µM [inhibitor, single point]"
8,COc1ccccc1N1CCN(C2CCN(S(=O)(=O)c3ccc(C)cc3)CC2)CC1,"inconclusive: 11.2 µM [inhibitor, single point]"
9,O=C(NN=C1CCCC1)c1[nH]c2ccc(Cl)cc2c1-c1ccccc1,"inconclusive: 8.91 µM [inhibitor, partial curve]"
10,COc1ccc(N(CC(=O)NC(C)C)C(=O)CCC(=O)Nc2ccccn2)cc1,"inconclusive: 31.6 µM [activator, single point]"
11,Clc1ccc(-c2nnc(NC3=NCCCCC3)o2)cc1,active: 1.64 µM
12,N#Cc1c(-c2ccc(Cl)cc2)ccnc1N1CCOCC1,"inconclusive: 35.5 µM [inhibitor, partial curve, poor fit]"
13,Cc1ccc(/C(CSc2nccn2-c2ncc(C(F)(F)F)cc2Cl)=N\O)cc1,"inconclusive: 14.1 µM [inhibitor, single point]"
14,Cc1ccc(NCc2nc3ccccc3n2CCOc2ccccc2)cc1,"inconclusive: 4.11 µM [activator, partial curve, poor fit]"
15,NC(=O)N1CC(O)CC1C(=O)Nc1ccc(Cl)c(Cl)c1 (stereo not given),inactive
16,CC(=O)Nc1cccc(C(=O)OCC(=O)NCc2ccc(F)cc2)c1,inactive
17,COc1ccccc1Nc1cc(C(=O)NCc2cccs2)c2ccccc2n1,"inconclusive: 6.31 µM [activator, single point]"
18,O=C(O)CSc1ccc(Oc2ccc(SCC(=O)O)cc2)cc1,"inconclusive: 35.5 µM [activator, single point]"
19,Cc1cccc(-n2c(O)c(/C=N/NC(=O)c3ccccc3Cl)c3ccccc3c2=O)n1,"inconclusive: 35.5 µM [inhibitor, single point]"
20,CCOc1cc(CNCC(C)C)c(Cl)cc1OCC(=O)Nc1ccccc1,"inconclusive: 12.6 µM [inhibitor, partial curve, poor fit]"
21,C/C(=N\NC(=O)Cn1nc(C)c([N+](=O)[O-])c1C)c1ccc(O)cc1,"inconclusive: 6.31 µM [inhibitor, single point]"
22,ClC(Cl)(Cl)c1nc2ccccc2n2nncc12,active: 4.47 µM

row,Compound,Potency
1,Cc1ccc(S(=O)(=O)N(C)C)cc1NC(=O)COC(=O)/C=C/c1ccc2c(c1)OCO2,"inconclusive: 6.31 µM [inhibitor, partial curve, poor fit]"
2,COc1cc2c(cc1OC)CN(C(=O)c1cc(S(=O)(=O)N3CCOCC3)c(Cl)cc1Cl)CC2,inactive
3,Cc1ccccc1-c1nc(CS(=O)(=O)CC(=O)NCCCN2CCOCC2)c(C)o1,inactive
4,O=C(Nc1ccc(Cl)cc1)N1CCN(c2ccc3nnc(-c4ccc(F)cc4)n3n2)CC1,"inconclusive: 11.2 µM [inhibitor, single point] and inconclusive: 6.31 µM [inhibitor, full curve, poor fit]"
5,Cc1ccc(-n2nc(CO)c(C(=O)NCc3cccs3)n2)cc1,inactive
6,COc1ccc(C(=O)N2CCCC(Nc3ccc(F)cc3)C2)c(OC)c1 (stereo not given),"inconclusive: 15.8 µM [inhibitor, single point]"
7,COc1cc2c(c(OC)c1OC)-c1ccc(OC)c(=O)cc1[C@@H](NC(C)=O)CC2,"inconclusive: 1.41 µM [inhibitor, full curve] and inconclusive: 164 nM [inhibitor, full curve, poor fit]"
8,CN(C(=O)/C(N=Nc1cccc(C(F)(F)F)c1)=C(\O)C(F)(F)F)c1ccccc1,"inconclusive: 6.51 µM [activator, single point]"
9,COc1ccccc1-c1ccc(/C=C2\C=CC(=O)O2)o1,inactive
10,COCCNc1cc(-c2ccccc2)nc2cc(-c3cccc(F)c3)nn12,"inconclusive: 35.5 µM [inhibitor, single point]"
11,Cc1noc(C)c1S(=O)(=O)N1CCC(C(=O)Nc2ccc(OC(F)(F)F)cc2)CC1,"inconclusive: 22.4 µM [inhibitor, single point]"
12,COCCN1C=C(C(=O)OC)C(c2ccc(Cl)cc2)C(C(=O)OC)=C1,"inconclusive: 35.5 µM [inhibitor, single point]"
13,Cc1c(O)ccc2c(CN3CCN(C/C=C/c4ccccc4)CC3)cc(=O)oc12,active: 8.91 µM
14,CC(C)(C)c1ccc(C(=O)NCc2nnc(SCC(=O)NC3CCCC3)o2)cc1,inactive
15,Cc1cccc(NC(=O)CSc2nc(N)c(NC(=O)c3cccs3)c(=O)[nH]2)c1C,"inconclusive: 0.461 µM [activator, full curve, poor fit]"
16,CS(=O)(=O)N1CCN(c2ccc(NC(=O)c3ccccc3)cc2)CC1,inactive
17,CN(C)C(CNC(C(=O)Nc1ccc(F)cc1)c1ccccc1)c1ccccc1 (stereo not given),"inconclusive: 20 µM [inhibitor, partial curve, poor fit]"
18,O=C(Cc1ccc(Br)cc1)N1CCCC1,inactive
19,Cc1cc(O)c(C=Nc2ccc(Cl)cn2)c(=O)o1,inactive
20,Cc1c(Cl)cccc1NC(=O)Nc1ccn(C)n1,"inconclusive: 2.82 µM [activator, full curve, poor fit]"
21,COc1cc(OC)c(OC)cc1CN1CCCC(C(=O)c2sccc2C)C1 (stereo not given),"inconclusive: 22.4 µM [inhibitor, single point]"
22,CCCc1nc2oc3c(NCCN(C)C)ncnc3c2c2c1CCCC2,"inconclusive: 9.2 µM [inhibitor, partial curve, poor fit]"

row,Compound,Potency
1,O=C(Nc1ccnn1C1CCN(Cc2ccccc2)CC1)C1CCCC1,"inconclusive: 1.26 µM [activator, single point]"
2,CN(C)CC(C)(C)CNS(=O)(=O)CC12CCC(CC1=O)C2(C)C (stereo not given),inactive
3,NC(=S)N=Nc1c(O)[nH]c2cc(F)c(F)cc12,inactive
4,COc1cccc(Cn2cc(N)cn2)c1,"inconclusive: 29.1 µM [inhibitor, single point]"
5,FC(F)(F)c1ccc(/C=N/N2CCN(Cc3cccc4ccccc34)CC2)cc1,"inconclusive: 29.1 µM [inhibitor, single point]"
6,CN(C)/N=C/c1ccc(N2CCOCC2)cc1,"inconclusive: 0.891 µM [activator, full curve, poor fit]"
7,Cc1ccc(C(=O)Nc2ccccc2N2CCN(C(=O)C(C)C)CC2)cc1C,"inconclusive: 9.2 µM [inhibitor, partial curve, poor fit]"
8,O=C(COc1ccccc1Cl)Nc1ccc(S(=O)(=O)N2CCOCC2)cc1,"inconclusive: 12.6 µM [inhibitor, single point]"
9,O=C(c1ccc(C#CC2(O)CCCCC2)cc1)N1CCN(Cc2ccccc2)CC1,"inconclusive: 2 µM [activator, full curve, poor fit]"
10,CN(C(=O)CSc1nc2ccccc2o1)C1CCCCC1,inactive
11,COc1ccc(OC)c(NC(=O)c2cnc(Nc3ccccc3OC)c3ccccc23)c1,"inconclusive: 3.16 µM [inhibitor, single point]"
12,OCCCNc1nc(-c2ccccc2)c2cc(Br)ccc2n1,"inconclusive: 35.5 µM [inhibitor, single point]"
13,CC(C)C1C(c2ccccc2)N(C)C(c2ccccc2)CC1(O)c1ccccc1 (stereo not given),active: 14.6 µM
14,CN(Cc1ccccc1)c1nc(-c2ccc([N+](=O)[O-])cc2)nc2ccccc12,"inconclusive: 35.5 µM [inhibitor, single point]"
15,O=C(O)CSC1=c2ccccc2=NC1c1cccs1 (stereo not given),inactive
16,Cc1ccc(C)c(C(=O)OCC(=O)Nc2cccc(S(=O)(=O)NC3=NCCCCC3)c2)c1,"inconclusive: 10 µM [inhibitor, partial curve, poor fit]"
17,O=C1c2ccccc2-c2n[nH]c3cccc1c23,"inactive and inconclusive: 8.2 µM [activator, partial curve, poor fit]"
18,CCOc1cc(/C=C/C(=O)O)ccc1OCCOc1ccccc1,"inconclusive: 2.51 µM [inhibitor, full curve]"
19,CCCCNC(=S)Nc1ccc(-c2nc3ccc(C)cc3s2)cc1,"inconclusive: 8.91 µM [inhibitor, partial curve, poor fit]"
20,Cc1nnc(SCC(=O)N/N=C/c2cc(Cl)c(O)c(Cl)c2)s1,"inconclusive: 1.26 µM [activator, single point]"
21,CC1=Nc2ccccc2N=C(NC(=O)CSC(=S)N2CCN(C)CC2)C1c1ccccc1 (stereo not given),"inconclusive: 20 µM [inhibitor, partial curve, poor fit]"
